# Results as given in PubChem BioAssay AID493014 (National Center for Advancing Translational Sciences (NCATS), 2011).
# The other results are listed elsewhere or left out. The main result of the screen is listed elsewhere. These columns were measured beside it and carry no call. Most of these compounds were active or inconclusive in the main read-out, so they are no random draw. Potencies come from curve fits of mixed quality, noted in brackets.
# Assay: qHTS Assay to Find Inhibitors of Chronic Active B-Cell Receptor Signaling
# Details: ABC-DLBCL IkBa-CBG/CBR reporter, luminescence ratio (green luciferase fused to IkBa over red control in TMD8 lymphoma cells), 4 h
# Outline: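 Concentration-response series (up to 46 uM) were applied to TMD8 dual-reporter cells for 4 h at 37C with doxycycline. Green/red ratio, after filter-overlap correction, defined %Activity; red signal alone was normalised to basal cells and zero luminescence.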
# [1] = measured here: CBR red luminescence, cell number
# [2] = measured here: IkBa-CBG green luminescence
SMILES,AC50 [1],AC50 [2]
Cc1ccc(-n2nc(N)c3c(=O)oc(N(C)C)nc32)cc1,"0.0891 µM [falling, full curve, poor fit]",–
CCOC(=O)Cc1cnc(NC(=O)CSc2nc(C)c(CC)c(=O)[nH]2)s1,"11.2 µM [falling, partial curve, poor fit]",–
NC(=O)[C@H]1CC2(CC(c3cccc(NC(=O)[C@H]4CCC(=O)N4)c3)=NO2)CN1C(=O)c1cc([N+](=O)[O-])cc([N+](=O)[O-])c1 (stereo partly drawn),"6.31 µM [falling, single point]",–
CC(Sc1nnnn1-c1ccccc1)C(=O)Nc1ccc(Cl)cn1 (stereo not drawn),–,"4.61 µM [rising, partial curve, poor fit]"
Cc1ccc(C(NC(=O)N2CCCC2)C(Cl)(Cl)Cl)cc1F (stereo not drawn),"11.2 µM [rising, partial curve, poor fit]",–
NC(=O)c1cc2ccccc2oc1=NCc1ccccc1,"14.1 µM [falling, single point]",–
CCCCN(Cc1ccccc1)S(=O)(=O)c1ccc2[nH]c(=O)oc2c1,"20 µM [falling, partial curve, poor fit]",–
O=C(O)c1cc([N+](=O)[O-])ccc1NCCc1ccccc1,"11.2 µM [falling, partial curve, poor fit]",–
Cc1oc(C(N)=O)cc1COc1ccc(C(N)=O)cc1,"35.5 µM [rising, single point]",–
Cc1cc(C)c2cc(C=O)c(Cl)nc2c1,"10 µM [rising, partial curve]","3.55 µM [falling, full curve]"
COc1ccc(N(Cc2cc(=O)[nH]c3ccccc23)C(=O)c2ccco2)cc1,"20 µM [falling, single point]",–
N#Cc1cc2cc3c(cc2nc1NCCNC(=S)NCCCN1CCOCC1)OCO3,"7.94 µM [falling, single point]",–
O=C1c2ccccc2C(=O)N1CCSc1ccccc1,"1.16 µM [rising, full curve, poor fit]",–
CCOc1cc(CNc2ccc(N3CCCCC3)cc2)cc(Br)c1OCC(=O)NC(C)(C)C,"18.4 µM [falling, partial curve]","32.6 µM [rising, partial curve, poor fit]"
Cc1onc(-c2ccccc2)c1C(=O)Nc1ncc([N+](=O)[O-])s1,"11.2 µM [falling, single point]",–
CCCc1[nH]nc2c1C(c1ccccc1OC)C(C#N)=C(N)O2 (stereo not drawn),"10 µM [falling, partial curve, poor fit]",–
Cc1ccc(S(=O)(=O)N2CCN(S(=O)(=O)c3c(C)n[nH]c3C)CC2)cc1C,"3.66 µM [rising, partial curve, poor fit]",–
COc1ccc(NC2CCCN(C(=O)c3cccc(N4CCNC4=O)c3)C2)cc1 (stereo not drawn),"8.91 µM [rising, partial curve, poor fit]",–
Cc1cc(C)nc(N/N=C/c2ccccc2OCc2ccc(Cl)cc2)n1,"1.84 µM [rising, partial curve]",–
O=C(Cn1cc2c(n1)CCCC2)Nc1cc(-c2cccc(Cl)c2)no1,"6.51 µM [rising, partial curve, poor fit]",–

# Some of these compounds in order of count of non-hydrogen atoms, rising.
SMILES,AC50 [1],AC50 [2]
Cc1cc(C)nc(N/N=C/c2ccccc2OCc2ccc(Cl)cc2)n1,"1.84 µM [rising, partial curve]",–
CCOc1cc(CNc2ccc(N3CCCCC3)cc2)cc(Br)c1OCC(=O)NC(C)(C)C,"18.4 µM [falling, partial curve]","32.6 µM [rising, partial curve, poor fit]"
NC(=O)[C@H]1CC2(CC(c3cccc(NC(=O)[C@H]4CCC(=O)N4)c3)=NO2)CN1C(=O)c1cc([N+](=O)[O-])cc([N+](=O)[O-])c1 (stereo partly drawn),"6.31 µM [falling, single point]",–

# (next part)

SMILES,AC50 [1],AC50 [2]
O=C(CSc1nnc(-c2ccccc2)c(-c2ccccc2)n1)NCCc1ccccc1,"15.8 µM [falling, single point]",–
Cc1ncoc1C(=O)NC1CCCc2c1cnn2-c1ccc(C(C)(C)C)cc1 (stereo not drawn),"25.1 µM [falling, single point]",–
COc1ccc(-c2noc(CCC(=O)N3CCN(c4ccccc4Cl)CC3)n2)cc1,"7.31 µM [rising, partial curve, poor fit]","8.2 µM [falling, partial curve, poor fit]"
COc1ccccc1NC(=O)Nc1nnc(CC(=O)Nc2ccccc2)s1,"3.16 µM [falling, full curve]",–
Cc1ccc(C(=O)N2CCN3C(=O)c4ccccc4C23c2ccccc2)cc1 (stereo not drawn),"7.94 µM [falling, partial curve]",–
COc1ccc(C)cc1NC(=S)N1CC(C)OC(C)C1 (stereo not drawn),"7.08 µM [rising, partial curve, poor fit]",–
Cc1ccc(S(=O)(=O)Nc2ccc3c(c2)n(C)c(=O)n3C)c(C)c1,"25.1 µM [rising, single point]",–
O=C(NC(=S)Nn1cnnc1)c1cccc(Br)c1,"6.51 µM [rising, single point]",–
O=C(/C=C/Nc1ccc(Br)cc1F)c1ccco1,"10 µM [falling, single point]",–
COc1ccc(CCNC(=O)CSc2nnnn2C)cc1OC,"25.1 µM [rising, single point]",–
O=C(Nc1nc2ccccc2c(=O)s1)c1ccco1,"20 µM [falling, single point]",–
CN(CC(=O)Nc1ccncc1)S(=O)(=O)c1ccccc1,"6.51 µM [rising, single point]",–
CC(=O)C1=C(O)C(=O)N(c2ccc(C)cc2)C1c1ccccn1 (stereo not drawn),"29.1 µM [rising, single point]",–
O=C(OCc1cc(=O)n2ccsc2n1)c1ccc(O)cc1O,"0.517 µM [rising, full curve]",–
Cn1c(=O)c(C(=O)NNC(=O)c2ccccc2F)c(O)c2ccccc21,"1.12 µM [falling, full curve, poor fit]",–
CN1CCN(C(=S)NC(=O)/C=C/c2cccs2)CC1,"0.501 µM [rising, full curve, poor fit]",–
Cc1ccc2c(c1)N(CC(=O)N1CCC(C)CC1)C(=O)c1cccnc1O2,"15.8 µM [rising, single point]",–
C=CC[C@H](CC(=O)N(CCO)Cc1ccccc1)C(=O)N[C@H](COC(=O)[C@@H](CC=C)Cc1ccc(F)cc1)Cc1c[nH]c2ccccc12,"29.1 µM [falling, single point]",–
C=C(C)CSc1nc2nc(C)c(Br)cc2[nH]1,"16.4 µM [falling, single point]",–
COC(CNC(=O)c1ccc2c(c1)ncn2-c1cccc(C)c1)OC,"0.112 µM [rising, full curve, poor fit]",–
